From paper doi:10.1101/2022.06.28.497953
No constants are given. Whether binding was seen depends on the method and setting. Tags and fused reporters may be left off the sequences shown.

Target: His-tagged BmCBP(ZEA): Carotenoid-Binding Protein from Bombyx mori, residues 68-297, zeaxanthin-bound holoform (Bombyx mori) (UniProt Q8MYA9)
Assay: SEC-SAXS

binding: no binding (tested: 13 mg/ml)
B1: His-tagged BmCBP(ZEA): Carotenoid-Binding Protein from Bombyx mori, residues 68-297, zeaxanthin-bound holoform (domain or fragment, UniProt Q8MYA9 68-297)
chain: SIDEYKSQANESMANAWRIITLPNWTVEKRGTVRGDVVESRKVEGFGKVYRFTGVVNCPARFLYEEFKNNLTKLPEWNPTILKCEIIKEIGDGVDLSYQVTAGGGRGIITPRDFVILRRTALLSREGRVVDDNPHGYISSGVSVQVPGYPPLKEMVRGHNKVGCWYLQPRTVQTPGGKIEDQALFQWLMCCDLKGKIPQFVLDVAFATVMLDYIVHVRKFVAEAKARAEI
